Measured values published in the supplement of paper PMC11732987, “Enantioselective OTUD7B fragment discovery through chemoproteomics screening and high-throughput optimisation” (Communications Chemistry, 2025).
This is one part of the list. The data scatter; read single values as rough.

Sequences of proteins named here, by UniProt entry; tags and fusion partners are left off. A change or cut given only in a name is not applied to a line headed by its entry. Residues count along the entry.
UniProt Q9UJS0: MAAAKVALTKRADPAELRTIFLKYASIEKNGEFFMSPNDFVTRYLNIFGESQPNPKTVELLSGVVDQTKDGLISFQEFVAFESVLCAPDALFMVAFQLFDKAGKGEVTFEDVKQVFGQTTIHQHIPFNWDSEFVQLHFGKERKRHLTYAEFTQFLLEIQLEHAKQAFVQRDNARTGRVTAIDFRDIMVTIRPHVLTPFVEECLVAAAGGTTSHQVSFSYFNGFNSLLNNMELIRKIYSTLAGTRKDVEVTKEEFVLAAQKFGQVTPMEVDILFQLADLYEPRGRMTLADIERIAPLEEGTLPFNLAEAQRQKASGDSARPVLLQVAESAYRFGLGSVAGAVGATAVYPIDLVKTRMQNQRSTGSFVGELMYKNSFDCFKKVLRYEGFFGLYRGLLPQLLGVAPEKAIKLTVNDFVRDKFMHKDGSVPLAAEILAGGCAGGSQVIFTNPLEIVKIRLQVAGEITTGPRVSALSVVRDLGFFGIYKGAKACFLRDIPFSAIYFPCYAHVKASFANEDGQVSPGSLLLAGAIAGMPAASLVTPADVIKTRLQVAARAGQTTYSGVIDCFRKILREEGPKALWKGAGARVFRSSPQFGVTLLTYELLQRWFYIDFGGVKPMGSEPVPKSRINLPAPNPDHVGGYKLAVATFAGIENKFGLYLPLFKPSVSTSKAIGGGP
UniProt A6NHR9: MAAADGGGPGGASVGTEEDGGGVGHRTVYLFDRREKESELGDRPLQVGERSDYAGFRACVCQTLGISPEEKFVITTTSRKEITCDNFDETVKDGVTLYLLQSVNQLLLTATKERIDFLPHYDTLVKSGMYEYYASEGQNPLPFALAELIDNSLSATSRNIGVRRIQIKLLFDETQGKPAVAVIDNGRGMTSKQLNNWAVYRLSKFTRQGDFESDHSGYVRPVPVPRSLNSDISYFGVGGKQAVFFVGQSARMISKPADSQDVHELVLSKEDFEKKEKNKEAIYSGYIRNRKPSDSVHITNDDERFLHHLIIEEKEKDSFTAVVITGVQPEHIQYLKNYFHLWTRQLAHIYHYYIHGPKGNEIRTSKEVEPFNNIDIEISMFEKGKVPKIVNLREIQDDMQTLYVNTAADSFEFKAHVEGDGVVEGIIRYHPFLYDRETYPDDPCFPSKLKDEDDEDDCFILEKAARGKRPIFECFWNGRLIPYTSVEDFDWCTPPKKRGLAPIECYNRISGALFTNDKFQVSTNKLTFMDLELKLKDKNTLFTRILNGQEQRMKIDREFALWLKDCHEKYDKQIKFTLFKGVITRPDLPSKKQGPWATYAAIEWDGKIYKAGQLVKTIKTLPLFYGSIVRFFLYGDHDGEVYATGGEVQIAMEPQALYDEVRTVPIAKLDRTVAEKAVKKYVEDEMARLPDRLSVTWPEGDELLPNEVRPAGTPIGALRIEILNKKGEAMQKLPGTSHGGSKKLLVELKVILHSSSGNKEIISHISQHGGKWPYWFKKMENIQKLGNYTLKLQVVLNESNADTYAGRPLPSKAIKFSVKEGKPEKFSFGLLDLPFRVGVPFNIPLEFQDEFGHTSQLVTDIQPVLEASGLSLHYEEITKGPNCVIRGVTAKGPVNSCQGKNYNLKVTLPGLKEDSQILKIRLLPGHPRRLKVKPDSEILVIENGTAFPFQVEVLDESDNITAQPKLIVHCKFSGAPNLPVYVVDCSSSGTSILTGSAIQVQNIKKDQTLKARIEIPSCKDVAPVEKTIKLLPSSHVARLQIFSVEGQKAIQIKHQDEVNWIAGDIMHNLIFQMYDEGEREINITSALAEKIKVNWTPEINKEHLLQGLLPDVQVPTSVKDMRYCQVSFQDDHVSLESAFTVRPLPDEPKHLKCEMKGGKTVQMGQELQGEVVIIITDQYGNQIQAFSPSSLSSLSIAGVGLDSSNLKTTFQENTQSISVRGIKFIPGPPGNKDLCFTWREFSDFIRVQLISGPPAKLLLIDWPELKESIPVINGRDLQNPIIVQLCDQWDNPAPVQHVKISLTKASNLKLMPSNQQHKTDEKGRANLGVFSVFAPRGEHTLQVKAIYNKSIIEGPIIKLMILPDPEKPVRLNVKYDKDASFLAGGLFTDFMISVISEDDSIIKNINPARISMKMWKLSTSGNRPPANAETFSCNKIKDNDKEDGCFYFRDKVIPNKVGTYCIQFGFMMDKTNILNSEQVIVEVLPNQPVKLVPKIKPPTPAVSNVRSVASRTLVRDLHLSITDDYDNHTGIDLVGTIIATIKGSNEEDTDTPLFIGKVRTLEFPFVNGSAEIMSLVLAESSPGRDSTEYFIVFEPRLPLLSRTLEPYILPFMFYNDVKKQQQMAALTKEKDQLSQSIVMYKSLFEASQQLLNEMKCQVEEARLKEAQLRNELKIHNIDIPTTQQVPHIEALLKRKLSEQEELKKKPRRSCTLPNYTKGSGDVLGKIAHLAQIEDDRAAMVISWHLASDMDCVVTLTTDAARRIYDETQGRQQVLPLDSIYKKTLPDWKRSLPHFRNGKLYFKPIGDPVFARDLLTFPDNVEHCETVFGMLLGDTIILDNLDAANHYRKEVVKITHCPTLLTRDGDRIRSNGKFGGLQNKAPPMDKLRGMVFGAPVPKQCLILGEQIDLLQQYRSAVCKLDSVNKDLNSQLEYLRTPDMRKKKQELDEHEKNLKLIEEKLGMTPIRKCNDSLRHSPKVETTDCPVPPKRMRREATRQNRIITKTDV
UniProt Q07617: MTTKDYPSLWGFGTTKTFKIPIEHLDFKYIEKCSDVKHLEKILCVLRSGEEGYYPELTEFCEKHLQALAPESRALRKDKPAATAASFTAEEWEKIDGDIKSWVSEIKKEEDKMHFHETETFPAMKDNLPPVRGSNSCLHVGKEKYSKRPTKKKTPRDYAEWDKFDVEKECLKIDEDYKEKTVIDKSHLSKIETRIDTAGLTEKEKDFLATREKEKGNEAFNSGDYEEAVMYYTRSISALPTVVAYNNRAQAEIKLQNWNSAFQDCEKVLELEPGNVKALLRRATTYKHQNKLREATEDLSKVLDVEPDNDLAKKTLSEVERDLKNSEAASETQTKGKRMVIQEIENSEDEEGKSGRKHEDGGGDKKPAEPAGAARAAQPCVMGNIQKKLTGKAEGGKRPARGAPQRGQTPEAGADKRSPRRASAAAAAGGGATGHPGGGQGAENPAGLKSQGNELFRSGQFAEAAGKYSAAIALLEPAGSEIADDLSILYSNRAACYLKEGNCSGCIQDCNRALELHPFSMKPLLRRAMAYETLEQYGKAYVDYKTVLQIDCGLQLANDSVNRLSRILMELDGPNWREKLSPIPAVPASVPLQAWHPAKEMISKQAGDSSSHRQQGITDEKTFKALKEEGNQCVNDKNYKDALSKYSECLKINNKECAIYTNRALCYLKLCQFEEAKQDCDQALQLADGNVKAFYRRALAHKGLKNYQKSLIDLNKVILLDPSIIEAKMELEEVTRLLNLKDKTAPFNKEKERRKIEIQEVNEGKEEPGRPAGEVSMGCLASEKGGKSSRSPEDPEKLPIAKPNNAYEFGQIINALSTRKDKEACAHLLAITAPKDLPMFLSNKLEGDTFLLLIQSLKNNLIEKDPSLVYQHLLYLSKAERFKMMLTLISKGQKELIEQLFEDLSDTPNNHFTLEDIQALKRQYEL
UniProt Q15758, 11-42: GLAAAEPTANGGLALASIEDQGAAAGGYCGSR
UniProt Q15758, 466-488: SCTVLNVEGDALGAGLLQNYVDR
UniProt Q53HV7: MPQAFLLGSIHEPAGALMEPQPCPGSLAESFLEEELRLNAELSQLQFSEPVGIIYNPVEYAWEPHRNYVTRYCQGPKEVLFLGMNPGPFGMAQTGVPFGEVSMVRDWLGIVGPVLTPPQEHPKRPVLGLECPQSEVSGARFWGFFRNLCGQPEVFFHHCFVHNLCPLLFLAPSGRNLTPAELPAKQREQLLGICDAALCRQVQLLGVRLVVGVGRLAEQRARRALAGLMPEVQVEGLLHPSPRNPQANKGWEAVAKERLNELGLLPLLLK
UniProt Q14683, 976-1000: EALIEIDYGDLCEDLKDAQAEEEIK
UniProt Q96R06: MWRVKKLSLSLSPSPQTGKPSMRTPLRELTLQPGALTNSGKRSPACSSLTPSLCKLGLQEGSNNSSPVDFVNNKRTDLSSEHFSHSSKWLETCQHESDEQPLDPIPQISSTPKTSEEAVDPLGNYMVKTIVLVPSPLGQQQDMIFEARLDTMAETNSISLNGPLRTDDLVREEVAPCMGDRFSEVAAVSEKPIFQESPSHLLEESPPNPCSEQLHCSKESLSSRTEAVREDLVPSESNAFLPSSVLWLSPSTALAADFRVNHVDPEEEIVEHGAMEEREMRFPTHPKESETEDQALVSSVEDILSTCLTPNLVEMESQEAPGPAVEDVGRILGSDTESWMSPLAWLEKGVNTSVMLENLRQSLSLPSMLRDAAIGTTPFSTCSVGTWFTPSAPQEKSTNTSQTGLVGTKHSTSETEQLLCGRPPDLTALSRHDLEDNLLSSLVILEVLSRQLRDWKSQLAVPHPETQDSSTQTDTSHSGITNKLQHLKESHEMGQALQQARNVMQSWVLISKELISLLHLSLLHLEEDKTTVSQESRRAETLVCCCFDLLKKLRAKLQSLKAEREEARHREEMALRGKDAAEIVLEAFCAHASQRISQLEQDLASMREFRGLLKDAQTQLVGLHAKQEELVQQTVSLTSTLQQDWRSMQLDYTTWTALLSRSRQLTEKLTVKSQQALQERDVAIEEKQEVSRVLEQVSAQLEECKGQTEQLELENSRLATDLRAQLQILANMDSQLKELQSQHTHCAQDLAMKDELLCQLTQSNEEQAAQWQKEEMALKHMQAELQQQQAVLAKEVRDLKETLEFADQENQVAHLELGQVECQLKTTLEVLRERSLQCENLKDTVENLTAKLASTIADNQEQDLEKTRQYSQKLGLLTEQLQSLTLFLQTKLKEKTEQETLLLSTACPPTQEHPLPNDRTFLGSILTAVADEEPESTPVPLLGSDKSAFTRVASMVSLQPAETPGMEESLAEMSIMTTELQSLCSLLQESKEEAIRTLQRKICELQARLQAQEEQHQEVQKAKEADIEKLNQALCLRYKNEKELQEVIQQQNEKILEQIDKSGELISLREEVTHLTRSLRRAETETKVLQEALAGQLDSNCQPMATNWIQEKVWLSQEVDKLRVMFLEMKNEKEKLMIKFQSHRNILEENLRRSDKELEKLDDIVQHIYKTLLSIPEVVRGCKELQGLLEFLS
UniProt Q9UN79, 30-53: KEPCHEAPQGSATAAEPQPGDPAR
UniProt P62318, 9-29: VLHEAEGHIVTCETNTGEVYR
UniProt P12757: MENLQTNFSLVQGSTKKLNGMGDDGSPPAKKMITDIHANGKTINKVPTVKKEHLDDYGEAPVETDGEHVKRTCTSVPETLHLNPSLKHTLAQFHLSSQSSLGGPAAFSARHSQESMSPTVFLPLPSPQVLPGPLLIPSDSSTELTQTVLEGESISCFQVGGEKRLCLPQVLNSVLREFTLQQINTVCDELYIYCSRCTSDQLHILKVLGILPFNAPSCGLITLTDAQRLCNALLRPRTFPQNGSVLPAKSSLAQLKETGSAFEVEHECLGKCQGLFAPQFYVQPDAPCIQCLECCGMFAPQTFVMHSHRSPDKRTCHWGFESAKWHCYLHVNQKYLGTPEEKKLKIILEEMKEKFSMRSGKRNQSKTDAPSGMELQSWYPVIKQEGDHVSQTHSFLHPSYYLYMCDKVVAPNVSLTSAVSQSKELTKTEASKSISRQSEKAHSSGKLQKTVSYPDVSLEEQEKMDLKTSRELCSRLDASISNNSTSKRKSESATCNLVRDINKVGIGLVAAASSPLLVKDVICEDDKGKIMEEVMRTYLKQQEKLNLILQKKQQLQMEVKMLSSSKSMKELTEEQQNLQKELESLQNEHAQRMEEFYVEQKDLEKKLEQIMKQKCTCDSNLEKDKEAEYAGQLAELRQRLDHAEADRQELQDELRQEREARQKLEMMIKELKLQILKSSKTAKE
UniProt Q15043, 277-297: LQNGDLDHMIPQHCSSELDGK
UniProt O15431: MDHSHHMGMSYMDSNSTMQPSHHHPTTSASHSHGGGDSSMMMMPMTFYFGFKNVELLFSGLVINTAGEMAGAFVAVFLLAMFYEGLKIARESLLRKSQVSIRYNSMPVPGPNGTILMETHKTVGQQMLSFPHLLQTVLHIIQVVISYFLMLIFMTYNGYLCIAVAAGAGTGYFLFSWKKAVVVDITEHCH
UniProt Q6NUK1: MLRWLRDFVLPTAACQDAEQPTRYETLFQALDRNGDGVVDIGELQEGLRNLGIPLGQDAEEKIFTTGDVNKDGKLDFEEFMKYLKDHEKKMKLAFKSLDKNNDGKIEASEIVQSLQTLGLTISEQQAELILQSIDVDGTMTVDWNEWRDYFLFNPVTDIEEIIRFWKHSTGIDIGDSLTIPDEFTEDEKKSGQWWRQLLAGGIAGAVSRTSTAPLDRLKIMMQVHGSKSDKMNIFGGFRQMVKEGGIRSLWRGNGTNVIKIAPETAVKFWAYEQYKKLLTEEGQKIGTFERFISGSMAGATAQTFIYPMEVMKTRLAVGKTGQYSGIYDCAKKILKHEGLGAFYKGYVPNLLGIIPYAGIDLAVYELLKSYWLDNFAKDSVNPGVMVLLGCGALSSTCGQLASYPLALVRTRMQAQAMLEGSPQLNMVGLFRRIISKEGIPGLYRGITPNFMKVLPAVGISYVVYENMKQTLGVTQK
UniProt P35610, 84-104: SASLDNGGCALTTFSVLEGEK

Tests used:
[1] = compound: ClCC(=O)N[C@@H]1CCCc2ccccc12; test: log2 mean competition ratio of IA-DTB cysteine labelling (DMSO/compound) (log2 ratio); higher = stronger cysteine engagement by compound; settings: treatment time: 4 h, cell line lysate: HEK293T
Description: (§1)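 IA-DTB competitive cysteine chemoproteomics in HEK293T RIPA lysate. Lysates were treated with compound 29 or 30 at 50 or 200 µM for 4 h, then IA-DTB (500 µM, 1 h), trypsin-digested, NeutrAvidin-enriched and analysed by diaPASEF. Competition ratio = intensity DMSO / intensity compound (n=4 treated, n=64 DMSO); binding: mean log2 CR ≥ 1 and p ≤ 0.05 plus QC filters. Target is the cysteine site.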

[2] = compound: ClCC(=O)N[C@H]1CCCc2ccccc12; test: as above; settings: treatment time: 4 h, cell line lysate: HEK293T
Description: as §1

Target | log2 mean competition ratio ([1]; 50 µM) | log2 mean competition ratio ([1]; 200 µM) | log2 mean competition ratio ([2]; 50 µM) | log2 mean competition ratio ([2]; 200 µM)
SORT1 C651 (UniProt Q99523) | -0.252 | 0.322 | -0.195 | 0.338
SMAD1 C378 (UniProt Q15797) | 0.0311 | -0.0574 | 0.205 | -0.14
SMARCA2 C91 (UniProt P51531) | -0.0625 | 0.419 | 0.00252 | 0.38
SMC5 C229 (UniProt Q8IY18) | -0.344 | 0.246 | -0.0427 | 0.236
SMARCA5 C1001 (UniProt O60264) | -0.061 | -0.194 | -0.239 | -0.197
SMC5 C308 (UniProt Q8IY18) | 0.04 | -0.376 | -0.0388 | -0.0485
SMURF2 C151 | 0.397 | 0.301 | 0.22 | 0.414
SLC6A11 C612 | -0.158 | 0.24 | -0.145 | 0.228
SLC20A1 C403 (UniProt Q8WUM9) | 0.0607 | 0.0888 | 0.204 | 0.0103
SMN2 C60 | 0.121 | -0.121 | 0.159 | -0.0335
SLC25A13 C377 (UniProt Q9UJS0) | 0.0915 | -0.125 | 0.398 | -0.141
SMOC1 C67 (UniProt Q9H4F8) | 0.436 | 0.132 | -0.15 | 0.252
SMARCAD1 C445 (UniProt Q9H4L7) | -0.199 | 0.258 | -0.359 | 0.0301
SMPD4 C68 (UniProt Q9NXE4) | -0.0446 | 0.0505 | -0.432 | -0.127
SNX7 C248 | -0.105 | 0.0934 | -0.292 | 0.0163
SMCHD1 C458 (UniProt A6NHR9) | -0.281 | 0.337 | -0.419 | 0.165
SLC25A21 C46 (UniProt Q9BQT8) | -0.0616 | 0.0802 | -0.201 | -0.143
SMAD2 C161 (UniProt Q15796) | 0.663 | 0.0965 | 0.297 | -0.0205
SPART C562 (UniProt Q8N0X7) | -0.0703 | -0.246 | 0.497 | -0.134
SKA1 C10 (UniProt Q96BD8) | -0.4 | 0.272 | -0.763 | 0.148
SLC9A7 C132 (UniProt Q96T83) | -0.146 | -0.0396 | -0.262 | 0.0202
SPAG1 C657 (UniProt Q07617) | 0.0444 | -0.124 | 0.461 | -0.0741
SMG5 C109 (UniProt Q9UPR3) | -0.0302 | -0.141 | 0.224 | 0.0844
SKA3 C215 (UniProt Q8IX90) | -0.00322 | -0.185 | -0.317 | 0.0626

Target | log2 mean competition ratio ([1]; 50 µM) | log2 mean competition ratio ([1]; 200 µM) | log2 mean competition ratio ([2]; 50 µM) | log2 mean competition ratio ([2]; 200 µM)
SOGA1 C250 (UniProt O94964) | -0.119 | -0.136 | 0.205 | 0.137
SMARCA4 C1359 (UniProt P51532) | -0.185 | 0.0814 | -0.828 | 0.103
SMAD4 C391 (UniProt Q13485) | -0.286 | -0.206 |  | -0.0701
SLC1A5 C39 (UniProt Q15758) | -0.0249 | 0.0713 | 0.454 | -0.0764
SNRPB;SNRPN C19;(C19) | -0.165 | -0.0481 | -0.0455 | -0.067
SMUG1 C131 (UniProt Q53HV7) | -0.0809 | 0.173 | -0.317 | 0.451
SNX12 C67 (UniProt Q9UMY4) | 0.0812 | -0.212 | 0.141 | -0.352
SNX16 C230 (UniProt P57768) | -0.0371 | -0.142 | 0.0502 | 0.0873
SLC5A3 C609 (UniProt P53794) | 0.298 | 0.0158 | 0.137 | 0.243
SLC25A6 C160 (UniProt P12236) | -0.0175 | -0.16 | 0.354 | 0.188
SLC6A11 C80 | 0.41 | -0.261 | -0.645 | 0.338
SMARCAL1 C62 (UniProt Q9NZC9) | 0.316 | 0.158 | 0.134 | 0.206
SMYD2 C321 (UniProt Q9NRG4) | -0.338 | 0.04 | -0.124 | 0.176
SLC25A10 C181 (UniProt Q9UBX3) | 0.0211 | 0.0704 | 0.0828 | 0.138
SNX13 C62 (UniProt Q9Y5W8) | -0.00499 | -0.225 | -0.699 | -0.162
SLC25A4 C160 (UniProt P12235) | -0.0388 | 0.291 | -0.0251 | 0.311
SLC7A1 C21 (UniProt P30825) | 0.0286 | 0.0463 | -0.036 | 0.0898
SLC26A6 C628 (UniProt Q9BXS9) | -0.251 | 0.121 | -0.0462 | 0.302
SMC1A C987 (UniProt Q14683) | -0.043 | 0.0322 | 0.162 | -0.234
SMARCC1 C845 (UniProt Q92922) | -0.323 | 0.352 | -0.218 | 0.412
SPAG5 C177 (UniProt Q96R06) | 0.0521 | -0.0929 | 0.0483 | 0.0108
SMC6 C251 (UniProt Q96SB8) | -0.107 | -0.0483 | -0.371 | 0.0857
SMCHD1 C1982 (UniProt A6NHR9) | -0.0896 | 0.012 | -0.349 | 0.142
SLC25A20 C136 (UniProt O43772) | 0.417 | 0.0912 | 0.328 | -0.011

Record cards (already shown). Values in the order: log2 mean competition ratio ([1]; 50 µM) | log2 mean competition ratio ([1]; 200 µM) | log2 mean competition ratio ([2]; 50 µM) | log2 mean competition ratio ([2]; 200 µM)
SMUG1 C131 (UniProt Q53HV7) is listed as -0.0809 | 0.173 | -0.317 | 0.451
SNX13 C62 (UniProt Q9Y5W8) is listed as -0.00499 | -0.225 | -0.699 | -0.162
SLC6A11 C80 is listed as 0.41 | -0.261 | -0.645 | 0.338
SNRPB;SNRPN C19;(C19) is listed as -0.165 | -0.0481 | -0.0455 | -0.067

The list continues.

Target | log2 mean competition ratio ([1]; 50 µM) | log2 mean competition ratio ([1]; 200 µM) | log2 mean competition ratio ([2]; 50 µM) | log2 mean competition ratio ([2]; 200 µM)
SMCHD1 C1018 (UniProt A6NHR9) | -0.341 | -0.246 | 0.0333 | -0.127
SLC38A1 C131 (UniProt Q9H2H9) | 0.21 | -0.0835 | 0.461 | 0.222
SKA3 C290 (UniProt Q8IX90) | -0.0314 | 0.137 | -0.0537 | 0.189
SLC2A4RG C322 | -0.182 | 0.164 | -0.101 | 0.256
SLC25A40 C142 (UniProt Q8TBP6) | -0.211 | -0.0473 | 0.0038 | -0.498
SOS2 C1255 (UniProt Q07890) | -0.21 | -0.108 | 0.411 | -0.211
SMARCA2 C399 (UniProt P51531) | -0.136 | 0.0369 | 0.173 | -0.149
SMYD3 C266 (UniProt Q9H7B4) | -0.261 | -0.132 | -0.0247 | -0.112
SNAP47 C246 (UniProt Q5SQN1) | -0.126 | -0.0588 | 0.23 | -0.00801
SKI C449 (UniProt P12755) | -0.24 | 0.0889 | -0.465 | 0.0397
SOX13 C33 (UniProt Q9UN79) | 0.0455 | -0.149 | -0.194 | -0.0507
SMG6 C278 (UniProt Q86US8) | -0.371 | 0.191 | -0.192 | 0.475
SORT1 C740 (UniProt Q99523) | 0.0508 | 0.252 | -0.114 | 0.575
SNRPD3 C20 (UniProt P62318) | -0.132 | 0.00677 | 0.329 | -0.0767
SPAG1 C552 (UniProt Q07617) | -0.00704 | 0.0482 | -0.0227 | -0.235
SKIL C268 (UniProt P12757) | -0.112 | 0.444 | -0.258 | 0.0203
SNX7 C325 | -0.0662 | 0.125 | -0.241 | 0.0489
SPAG1 C633 (UniProt Q07617) | -0.363 | -0.0259 | -0.292 | -0.198
SNTA1 C226 (UniProt Q13424) | -0.145 | -0.017 | -0.307 | -0.178
SMG8 C248 (UniProt Q8ND04) | -0.194 | -0.128 | 0.226 | -0.0441
SNAPC3 C11 (UniProt Q92966) | -0.0953 | 0.233 | -0.0298 | 0.156
SMURF2 C47 | 0.15 | -0.0524 | 0.0512 | -0.0564
SLC39A14 C290 (UniProt Q15043) | -0.366 | 0.0668 | -0.734 | -0.183
SLC31A1 C189 (UniProt O15431) | -0.0705 | 0.15 | -0.776 | 0.108

Target | log2 mean competition ratio ([1]; 50 µM) | log2 mean competition ratio ([1]; 200 µM) | log2 mean competition ratio ([2]; 50 µM) | log2 mean competition ratio ([2]; 200 µM)
SLC25A20 C155 (UniProt O43772) | -0.0412 | 0.161 | 0.239 | 0.205
SLC4A1AP C730 (UniProt Q9BWU0) | 0.0906 | -0.0388 | 0.293 | 0.173
SND1 C96 (UniProt Q7KZF4) | -0.0773 | -0.153 | -0.146 | -0.131
SMC1B C102 (UniProt Q8NDV3) | -0.282 | 0.249 | 0.268 | 0.419
SLC25A24 C330 (UniProt Q6NUK1) | 0.422 | 0.207 | 0.0916 | 0.212
SLC35B2 C80 (UniProt Q8TB61) | -0.0568 | 0.0655 | 0.45 | 0.261
SMG8 C72 (UniProt Q8ND04) | -0.0137 | -0.16 | -0.249 | -0.0979
SLC26A6 C565 (UniProt Q9BXS9) | -0.172 | 0.423 | -0.393 | 0.359
SMC2 C1174 (UniProt O95347) | 0.0976 | 0.0574 | 0.0658 | 0.0749
SLC38A7 C30 (UniProt Q9NVC3) | -0.0476 | 0.0701 | -0.492 | 0.0275
SNRNP40 C291 (UniProt Q96DI7) | -0.17 | 0.0784 | -0.275 | 0.103
SLC27A4 C232 (UniProt Q6P1M0) | 0.0559 | 0.00157 | 0.0251 | -0.245
SLC1A5 C467 (UniProt Q15758) | -0.126 | 0.248 | -0.178 | 0.356
SMARCD2 C355 (UniProt Q92925) | 0.042 | -0.0653 | 0.102 | -0.052
SLC26A2 C48 (UniProt P50443) | -0.0403 | 0.0566 | -0.0414 | -0.159
SNUPN C356 (UniProt O95149) | 0.317 | 0.119 | 0.188 | -0.0615
SLC1A5 C363 (UniProt Q15758) | -0.0559 | 0.161 | -0.094 | 0.105
SNRNP200 C502 (UniProt O75643) | -0.19 | -0.13 | -0.267 | -0.171
SNX27 C30 (UniProt Q96L92) | -0.172 | -0.197 | -0.376 | -0.535
SMYD4 C412 (UniProt Q8IYR2) | -0.325 | -0.465 | -0.286 | -0.16
SLC39A6 C303 (UniProt Q13433) | -0.00371 | -0.00862 | 0.079 | 0.0144
SLAIN2 C165 | -0.209 | 0.157 | 0.553 | 0.446
SOAT1 C92 (UniProt P35610) | -0.0798 | -0.0664 | 0.0602 | -0.149
SPAG9 C443 (UniProt O60271) | -0.224 | 0.246 | -0.546 | -0.00956
